From the supplement of paper PMC12067093, “Discovery and optimisation of a covalent ligand for TRIM25 and its application to targeted protein ubiquitination” (Chemical Science, 2025)
The list shows a part of the results.

Protein sequences, listed by entry. Tags and fused reporters are not part of them. Lines headed by an entry give the natural chain unless they say otherwise; changes in a name come on top.
UniProt Q7L5Y9: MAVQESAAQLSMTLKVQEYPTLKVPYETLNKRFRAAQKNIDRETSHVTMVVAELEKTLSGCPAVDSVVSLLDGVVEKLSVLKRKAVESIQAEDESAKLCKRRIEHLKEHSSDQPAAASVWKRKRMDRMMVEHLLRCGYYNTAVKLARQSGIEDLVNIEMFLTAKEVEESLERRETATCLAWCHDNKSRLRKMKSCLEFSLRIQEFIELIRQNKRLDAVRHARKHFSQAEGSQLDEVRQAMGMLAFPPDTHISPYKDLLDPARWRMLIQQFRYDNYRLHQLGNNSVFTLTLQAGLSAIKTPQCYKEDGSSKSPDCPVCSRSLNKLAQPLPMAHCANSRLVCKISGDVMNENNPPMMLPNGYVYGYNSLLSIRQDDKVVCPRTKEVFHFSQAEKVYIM
UniProt P09960: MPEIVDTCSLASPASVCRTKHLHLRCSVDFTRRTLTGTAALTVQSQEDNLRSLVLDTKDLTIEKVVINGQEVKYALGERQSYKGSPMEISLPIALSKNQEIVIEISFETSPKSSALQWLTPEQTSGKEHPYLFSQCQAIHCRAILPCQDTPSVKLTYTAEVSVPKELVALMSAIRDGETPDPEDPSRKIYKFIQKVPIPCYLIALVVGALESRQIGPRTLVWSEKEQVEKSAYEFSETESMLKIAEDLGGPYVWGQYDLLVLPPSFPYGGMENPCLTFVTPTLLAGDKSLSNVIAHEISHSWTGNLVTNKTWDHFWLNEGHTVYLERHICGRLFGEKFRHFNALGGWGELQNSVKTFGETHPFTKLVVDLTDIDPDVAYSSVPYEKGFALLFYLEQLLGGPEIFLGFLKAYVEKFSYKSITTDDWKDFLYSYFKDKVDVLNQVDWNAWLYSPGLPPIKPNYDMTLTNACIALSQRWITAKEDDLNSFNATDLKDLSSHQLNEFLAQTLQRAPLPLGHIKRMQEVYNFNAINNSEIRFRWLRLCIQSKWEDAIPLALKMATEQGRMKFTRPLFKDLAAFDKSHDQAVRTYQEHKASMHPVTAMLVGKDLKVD
UniProt O60449: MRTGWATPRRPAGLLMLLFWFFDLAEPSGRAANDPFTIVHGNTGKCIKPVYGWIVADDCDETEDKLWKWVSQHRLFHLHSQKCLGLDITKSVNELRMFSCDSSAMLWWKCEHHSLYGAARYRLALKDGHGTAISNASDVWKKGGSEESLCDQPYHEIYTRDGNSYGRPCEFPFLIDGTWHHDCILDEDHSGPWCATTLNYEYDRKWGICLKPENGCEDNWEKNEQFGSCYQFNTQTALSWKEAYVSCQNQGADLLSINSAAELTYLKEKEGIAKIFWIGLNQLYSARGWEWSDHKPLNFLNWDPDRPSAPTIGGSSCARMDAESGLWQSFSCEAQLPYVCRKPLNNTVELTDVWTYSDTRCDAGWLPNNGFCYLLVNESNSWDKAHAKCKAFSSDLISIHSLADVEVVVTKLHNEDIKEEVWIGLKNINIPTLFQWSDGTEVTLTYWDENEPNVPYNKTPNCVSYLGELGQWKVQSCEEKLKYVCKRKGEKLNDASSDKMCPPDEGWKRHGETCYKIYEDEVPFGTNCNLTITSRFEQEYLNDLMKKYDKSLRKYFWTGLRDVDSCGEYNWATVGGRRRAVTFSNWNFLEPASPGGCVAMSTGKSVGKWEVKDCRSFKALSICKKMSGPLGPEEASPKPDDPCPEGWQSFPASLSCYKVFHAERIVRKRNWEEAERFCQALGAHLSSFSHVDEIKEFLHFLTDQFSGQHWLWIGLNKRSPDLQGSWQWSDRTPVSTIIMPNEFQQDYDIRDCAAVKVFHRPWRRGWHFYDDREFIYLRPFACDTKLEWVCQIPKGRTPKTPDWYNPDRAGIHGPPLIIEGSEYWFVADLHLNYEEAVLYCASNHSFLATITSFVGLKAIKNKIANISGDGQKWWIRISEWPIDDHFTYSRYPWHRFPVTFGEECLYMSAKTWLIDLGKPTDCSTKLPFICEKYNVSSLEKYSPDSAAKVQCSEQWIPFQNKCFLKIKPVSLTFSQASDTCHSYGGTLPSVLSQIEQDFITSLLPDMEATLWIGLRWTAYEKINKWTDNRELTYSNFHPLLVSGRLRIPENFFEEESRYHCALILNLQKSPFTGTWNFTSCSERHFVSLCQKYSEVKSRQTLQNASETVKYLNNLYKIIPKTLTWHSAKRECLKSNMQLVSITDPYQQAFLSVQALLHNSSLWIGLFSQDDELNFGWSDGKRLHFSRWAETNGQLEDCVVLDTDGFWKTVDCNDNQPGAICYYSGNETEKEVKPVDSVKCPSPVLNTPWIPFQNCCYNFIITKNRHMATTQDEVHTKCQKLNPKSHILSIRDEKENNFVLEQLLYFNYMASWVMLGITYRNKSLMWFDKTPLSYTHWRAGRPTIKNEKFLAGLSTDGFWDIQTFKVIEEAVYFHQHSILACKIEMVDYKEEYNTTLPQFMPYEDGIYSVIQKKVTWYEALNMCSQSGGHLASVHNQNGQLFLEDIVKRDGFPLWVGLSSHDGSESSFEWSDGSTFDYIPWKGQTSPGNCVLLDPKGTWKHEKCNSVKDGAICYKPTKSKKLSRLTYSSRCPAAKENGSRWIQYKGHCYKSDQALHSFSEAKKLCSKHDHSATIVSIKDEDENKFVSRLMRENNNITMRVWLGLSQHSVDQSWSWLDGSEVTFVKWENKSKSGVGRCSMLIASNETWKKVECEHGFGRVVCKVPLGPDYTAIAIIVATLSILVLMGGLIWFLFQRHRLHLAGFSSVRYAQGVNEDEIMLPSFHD
UniProt Q5U5X0: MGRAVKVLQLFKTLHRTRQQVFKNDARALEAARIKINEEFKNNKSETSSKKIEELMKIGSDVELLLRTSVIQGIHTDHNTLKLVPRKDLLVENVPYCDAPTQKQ
UniProt O60476: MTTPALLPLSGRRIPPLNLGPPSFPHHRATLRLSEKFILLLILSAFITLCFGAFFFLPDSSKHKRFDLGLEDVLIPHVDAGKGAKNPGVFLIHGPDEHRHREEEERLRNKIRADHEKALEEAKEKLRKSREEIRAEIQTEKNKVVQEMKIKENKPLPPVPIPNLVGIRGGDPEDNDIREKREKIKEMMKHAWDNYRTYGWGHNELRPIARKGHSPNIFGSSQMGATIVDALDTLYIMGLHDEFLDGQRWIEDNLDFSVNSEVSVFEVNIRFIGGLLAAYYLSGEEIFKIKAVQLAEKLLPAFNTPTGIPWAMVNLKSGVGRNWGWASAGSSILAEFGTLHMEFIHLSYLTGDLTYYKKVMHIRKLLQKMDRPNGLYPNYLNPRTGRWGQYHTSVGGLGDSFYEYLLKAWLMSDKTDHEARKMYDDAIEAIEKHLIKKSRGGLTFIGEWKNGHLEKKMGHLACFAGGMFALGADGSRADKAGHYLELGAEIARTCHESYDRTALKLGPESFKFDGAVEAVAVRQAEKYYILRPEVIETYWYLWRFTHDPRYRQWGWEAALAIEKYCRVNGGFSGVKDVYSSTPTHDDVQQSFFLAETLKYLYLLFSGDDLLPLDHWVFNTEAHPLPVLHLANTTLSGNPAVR
UniProt Q8WWC4: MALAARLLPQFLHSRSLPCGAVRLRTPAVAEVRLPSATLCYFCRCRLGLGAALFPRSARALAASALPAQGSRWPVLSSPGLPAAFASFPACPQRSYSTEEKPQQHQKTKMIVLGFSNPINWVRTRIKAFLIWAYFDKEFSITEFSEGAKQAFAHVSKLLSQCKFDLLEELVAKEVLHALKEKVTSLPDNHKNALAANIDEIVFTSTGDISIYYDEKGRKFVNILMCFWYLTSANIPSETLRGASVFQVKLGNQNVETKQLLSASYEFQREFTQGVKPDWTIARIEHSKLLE
UniProt P46734: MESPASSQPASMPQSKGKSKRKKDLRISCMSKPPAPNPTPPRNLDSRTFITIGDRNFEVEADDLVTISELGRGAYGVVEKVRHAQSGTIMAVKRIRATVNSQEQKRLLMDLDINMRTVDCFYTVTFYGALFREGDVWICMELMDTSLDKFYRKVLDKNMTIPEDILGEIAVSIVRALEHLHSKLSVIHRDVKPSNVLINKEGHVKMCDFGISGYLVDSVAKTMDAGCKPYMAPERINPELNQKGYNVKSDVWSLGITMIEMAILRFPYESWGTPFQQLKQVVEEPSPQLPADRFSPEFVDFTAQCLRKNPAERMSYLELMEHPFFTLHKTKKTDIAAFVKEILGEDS
UniProt P56270: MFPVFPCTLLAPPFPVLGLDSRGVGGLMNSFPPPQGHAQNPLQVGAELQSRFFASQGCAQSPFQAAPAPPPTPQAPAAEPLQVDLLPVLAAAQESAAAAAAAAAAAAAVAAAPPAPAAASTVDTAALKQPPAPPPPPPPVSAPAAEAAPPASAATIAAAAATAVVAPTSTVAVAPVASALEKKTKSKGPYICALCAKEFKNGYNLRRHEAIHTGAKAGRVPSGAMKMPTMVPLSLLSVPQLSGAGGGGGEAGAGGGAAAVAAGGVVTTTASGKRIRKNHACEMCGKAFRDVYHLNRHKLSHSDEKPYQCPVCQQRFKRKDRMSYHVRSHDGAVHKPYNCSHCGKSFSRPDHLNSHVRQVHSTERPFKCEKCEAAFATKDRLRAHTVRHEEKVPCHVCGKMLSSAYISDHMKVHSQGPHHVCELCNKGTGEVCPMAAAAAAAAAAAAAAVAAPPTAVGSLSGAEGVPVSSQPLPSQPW
UniProt Q9H063: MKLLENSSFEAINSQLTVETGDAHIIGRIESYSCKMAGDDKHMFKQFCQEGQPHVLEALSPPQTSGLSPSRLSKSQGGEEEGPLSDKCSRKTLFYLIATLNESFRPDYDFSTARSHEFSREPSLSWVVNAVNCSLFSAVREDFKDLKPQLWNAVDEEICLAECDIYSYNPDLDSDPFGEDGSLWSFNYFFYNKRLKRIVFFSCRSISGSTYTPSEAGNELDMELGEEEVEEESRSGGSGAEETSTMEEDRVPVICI
UniProt O14733: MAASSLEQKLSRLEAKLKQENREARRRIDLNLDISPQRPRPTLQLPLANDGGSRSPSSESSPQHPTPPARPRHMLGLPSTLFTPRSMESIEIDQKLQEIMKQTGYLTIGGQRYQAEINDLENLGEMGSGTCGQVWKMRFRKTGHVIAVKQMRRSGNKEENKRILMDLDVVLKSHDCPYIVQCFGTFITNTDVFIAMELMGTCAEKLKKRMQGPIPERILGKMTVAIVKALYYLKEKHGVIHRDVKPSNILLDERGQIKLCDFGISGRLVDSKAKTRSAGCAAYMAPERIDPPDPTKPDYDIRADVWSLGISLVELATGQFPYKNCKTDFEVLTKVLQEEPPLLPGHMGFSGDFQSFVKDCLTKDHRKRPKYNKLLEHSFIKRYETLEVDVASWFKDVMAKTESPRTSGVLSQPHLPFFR
UniProt P20645: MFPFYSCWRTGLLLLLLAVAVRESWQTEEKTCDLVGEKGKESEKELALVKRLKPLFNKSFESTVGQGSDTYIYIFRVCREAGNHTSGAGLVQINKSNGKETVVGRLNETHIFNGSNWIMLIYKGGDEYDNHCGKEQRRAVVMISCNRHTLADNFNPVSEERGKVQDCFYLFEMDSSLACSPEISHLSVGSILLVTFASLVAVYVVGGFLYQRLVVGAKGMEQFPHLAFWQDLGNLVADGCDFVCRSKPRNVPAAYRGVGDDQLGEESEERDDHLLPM
UniProt P45983: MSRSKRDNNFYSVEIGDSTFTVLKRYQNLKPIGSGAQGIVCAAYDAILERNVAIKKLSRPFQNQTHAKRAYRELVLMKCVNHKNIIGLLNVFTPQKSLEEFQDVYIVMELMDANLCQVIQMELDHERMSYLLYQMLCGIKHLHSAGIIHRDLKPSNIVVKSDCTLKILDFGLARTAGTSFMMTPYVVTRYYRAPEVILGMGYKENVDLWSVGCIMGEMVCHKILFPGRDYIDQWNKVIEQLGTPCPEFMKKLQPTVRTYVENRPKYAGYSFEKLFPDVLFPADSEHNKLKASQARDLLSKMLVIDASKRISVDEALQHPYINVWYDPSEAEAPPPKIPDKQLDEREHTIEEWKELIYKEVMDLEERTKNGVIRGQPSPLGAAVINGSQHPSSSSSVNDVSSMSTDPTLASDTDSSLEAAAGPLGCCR

Compound: CC1Cc2ccccc2N1C(=O)C1CCCN(C1)C(=O)CCl (mixture of isomers) [TRIM25 ligand 11 (diastereomer mixture)]
Experiment: probe-labelled cysteine peptide fold change vs DMSO (competition) (log2 fold change); higher = less target engagement (more negative = stronger competition)
Details: 10 µM; THP-1; incubation time: 4 h
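Note: competitive chemoproteomic profiling in live THP-1 cells with an iodoacetamide desthiobiotin (IA-DTB) probe, comparing probe-labelled peptide intensities in compound-treated cells against DMSO-treated controls.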

Going from “MAEA_Q7L5Y9_314+317_SPDCPVCSR (UniProt Q7L5Y9)” to “MACF1_Q9UPN3_1806_HNLIDQDMACAILIR (UniProt Q9UPN3)”, the “probe-labelled cysteine peptide fold change” value rises from -0.0393 to -0.0339.

First: LTA4H_P09960_136_EHPYLFSQCQAIHCR (UniProt P09960)
Second: MAP1S_Q66K74_435_VLFPGCTPPACLLDGLVR (UniProt Q66K74)
The “probe-labelled cysteine peptide fold change” value of the first is lower: 0.00289 for the first, 0.191 for the second.

Compared with “LY75_O60449_566_DVDSCGEYNWATVGGR (UniProt O60449)”, “LYRM7_Q5U5X0_97_DLLVENVPYCDAPTQK (UniProt Q5U5X0)” is higher in “probe-labelled cysteine peptide fold change” value: -0.0643 for the first, -0.0529 for the second.

First: MAN1A2_O60476_462_MGHLACFAGGMFALGADGSR (UniProt O60476)
Second: MAIP1_Q8WWC4_162_LLSQCK (UniProt Q8WWC4)
The “probe-labelled cysteine peptide fold change” value of the first is lower: -0.0933 for the first, 0.0902 for the second.

Compared with “LYAR_Q9NX58_6+9_VFFTCNACGESVKK (UniProt Q9NX58)”, “MARS_P56192_405_FVEGVCPFCGYEEAR (UniProt P56192)” is higher in “probe-labelled cysteine peptide fold change” value: -0.135 for the first, -0.0809 for the second.

First: MAP3K4_Q9Y6R4_1581_DFLSHCLESDPK (UniProt Q9Y6R4)
Second: MAPK13_O15264_162_DLKPGNLAVNEDCELK (UniProt O15264)
The “probe-labelled cysteine peptide fold change” value of the first is lower: -0.00106 for the first, 0.023 for the second.

Compared with “MARS_P56192_408_FVEGVCPFCGYEEARGDQCDK (UniProt P56192)”, LYZ_P61626_83_YWCNDGK (UniProt P61626) is higher in “probe-labelled cysteine peptide fold change” value: -0.101 for the first, -0.0213 for the second.

Compared with “MAK16_Q9BXY0_39_NEYSLTGLCNR (UniProt Q9BXY0)”, “MAP2K3_P46734_227_TMDAGCKPYMAPER (UniProt P46734)” is lower in “probe-labelled cysteine peptide fold change” value: -0.0399 for the first, -0.192 for the second.

Compared with “MAZ_P56270_339_SHDGAVHKPYNCSHCGK (UniProt P56270)”, MAF1_Q9H063_34_IESYSCK (UniProt Q9H063) is higher in “probe-labelled cysteine peptide fold change” value: -0.0644 for the first, 0.0118 for the second.

First: LY75_O60449_501_MCPPDEGWKR (UniProt O60449)
Second: MACF1_Q9UPN3_2629_KEGLLTNEAVLSPGMMHGIVDPENCR (UniProt Q9UPN3)
The “probe-labelled cysteine peptide fold change” value of the first is lower: -0.164 for the first, -0.0238 for the second.

First: LTN1_O94822_237_LLCLLPDNELDSLEEK (UniProt O94822)
Second: LYPLAL1_Q5VWZ2_174_SNGVLPELFQCHGTADELVLHSWAEETNSMLK (UniProt Q5VWZ2)
The “probe-labelled cysteine peptide fold change” value of the first is lower: 0.166 for the first, 0.366 for the second.

Going from “LUC7L3_O95232_58_SDLGPCEK (UniProt O95232)” to “MAP1S_Q66K74_440_VLFPGCTPPACLLDGLVR (UniProt Q66K74)”, the “probe-labelled cysteine peptide fold change” value rises from -0.0397 to 0.0367.

Compared with “MAPK9_P45984_222_GCVIFQGTDHIDQWNK (UniProt P45984)”, “MAP2K7_O14733_280_SAGCAAYMAPER (UniProt O14733)” is lower in “probe-labelled cysteine peptide fold change” value: -0.0623 for the first, -0.179 for the second.

Compared with “MAEA_Q7L5Y9_195_SCLEFSLR (UniProt Q7L5Y9)”, “MATR3_P43243_230_CRDDSFFGETSHNYHK (UniProt P43243)” is higher in “probe-labelled cysteine peptide fold change” value: -0.00611 for the first, 0.0188 for the second.

First: MACF1_Q9UPN3_892_NDECVLEDNSQR (UniProt Q9UPN3)
Second: MAP10_Q9P2G4_648_IQSPCVFQQDAVVDR (UniProt Q9P2G4)
The “probe-labelled cysteine peptide fold change” value of the first is higher: 0.106 for the first, -0.157 for the second.

Compared with “MACF1_Q9UPN3_4206_FEQLCLQQQEK (UniProt Q9UPN3)”, “LUC7L_Q9NQ29_43+44_SHLLDCCPHDILAGTR (UniProt Q9NQ29)” is lower in “probe-labelled cysteine peptide fold change” value: -0.0528 for the first, -0.0678 for the second.

Going from “LUC7L3_O95232_40+43_YYLCGFCPAELFTNTR (UniProt O95232)” to “MAPRE2_Q15555_279_EIELLCQEHGQENDDLVQR (UniProt Q15555)”, the “probe-labelled cysteine peptide fold change” value falls from 0.142 to -0.0442.

First: LYST_Q99698_20_LCNAVVQR (UniProt Q99698)
Second: M6PR_P20645_32_TCDLVGEK (UniProt P20645)
The “probe-labelled cysteine peptide fold change” value of the first is higher: -0.0369 for the first, -0.178 for the second.

First: MAEA_Q7L5Y9_333_LAQPLPMAHCANSR (UniProt Q7L5Y9)
Second: MAPK8_P45983_163_SDCTLK (UniProt P45983)
The “probe-labelled cysteine peptide fold change” value of the first is lower: -0.0602 for the first, -0.054 for the second.

First: LTA4H_P09960_26_CSVDFTR (UniProt P09960)
Second: LYPLA1_O75608_53_YICPHAPVRPVTLNMNVAMPSWFDIIGLSPDSQEDESGIK (UniProt O75608)
The “probe-labelled cysteine peptide fold change” value of the first is lower: -0.0535 for the first, -0.0108 for the second.

Same assay, conditions: 50 µM; THP-1; incubation time: 4 h

First: MAEA_Q7L5Y9_314+317_SPDCPVCSR (UniProt Q7L5Y9)
Second: MACF1_Q9UPN3_1806_HNLIDQDMACAILIR (UniProt Q9UPN3)
The “probe-labelled cysteine peptide fold change” value of the first is lower: -0.0107 for the first, 0.163 for the second.

Compared with “LTA4H_P09960_136_EHPYLFSQCQAIHCR (UniProt P09960)”, “MAP1S_Q66K74_435_VLFPGCTPPACLLDGLVR (UniProt Q66K74)” is higher in “probe-labelled cysteine peptide fold change” value: -0.0119 for the first, 0.311 for the second.

Compared with “LY75_O60449_566_DVDSCGEYNWATVGGR (UniProt O60449)”, “LYRM7_Q5U5X0_97_DLLVENVPYCDAPTQK (UniProt Q5U5X0)” is lower in “probe-labelled cysteine peptide fold change” value: 0.143 for the first, 0.0601 for the second.

First: MAN1A2_O60476_462_MGHLACFAGGMFALGADGSR (UniProt O60476)
Second: MAIP1_Q8WWC4_162_LLSQCK (UniProt Q8WWC4)
The “probe-labelled cysteine peptide fold change” value of the first is lower: -0.0276 for the first, 0.0774 for the second.

Compared with “LYAR_Q9NX58_6+9_VFFTCNACGESVKK (UniProt Q9NX58)”, “MARS_P56192_405_FVEGVCPFCGYEEAR (UniProt P56192)” is higher in “probe-labelled cysteine peptide fold change” value: -0.2 for the first, -0.136 for the second.

First: MAP3K4_Q9Y6R4_1581_DFLSHCLESDPK (UniProt Q9Y6R4)
Second: MAPK13_O15264_162_DLKPGNLAVNEDCELK (UniProt O15264)
The “probe-labelled cysteine peptide fold change” value of the first is higher: -0.00344 for the first, -0.114 for the second.

Going from “MARS_P56192_408_FVEGVCPFCGYEEARGDQCDK (UniProt P56192)” to LYZ_P61626_83_YWCNDGK (UniProt P61626), the “probe-labelled cysteine peptide fold change” value falls from 0.00823 to -0.0161.

Going from “MAK16_Q9BXY0_39_NEYSLTGLCNR (UniProt Q9BXY0)” to “MAP2K3_P46734_227_TMDAGCKPYMAPER (UniProt P46734)”, the “probe-labelled cysteine peptide fold change” value falls from 0.00588 to -0.284.

Going from “MAZ_P56270_339_SHDGAVHKPYNCSHCGK (UniProt P56270)” to MAF1_Q9H063_34_IESYSCK (UniProt Q9H063), the “probe-labelled cysteine peptide fold change” value rises from -0.188 to 0.136.

First: LY75_O60449_501_MCPPDEGWKR (UniProt O60449)
Second: MACF1_Q9UPN3_2629_KEGLLTNEAVLSPGMMHGIVDPENCR (UniProt Q9UPN3)
The “probe-labelled cysteine peptide fold change” value of the first is lower: -0.0884 for the first, 0.0638 for the second.

Going from “LTN1_O94822_237_LLCLLPDNELDSLEEK (UniProt O94822)” to “LYPLAL1_Q5VWZ2_174_SNGVLPELFQCHGTADELVLHSWAEETNSMLK (UniProt Q5VWZ2)”, the “probe-labelled cysteine peptide fold change” value falls from 0.34 to 0.156.

Compared with “LUC7L3_O95232_58_SDLGPCEK (UniProt O95232)”, “MAP1S_Q66K74_440_VLFPGCTPPACLLDGLVR (UniProt Q66K74)” is higher in “probe-labelled cysteine peptide fold change” value: -0.155 for the first, -0.0418 for the second.

First: MAPK9_P45984_222_GCVIFQGTDHIDQWNK (UniProt P45984)
Second: MAP2K7_O14733_280_SAGCAAYMAPER (UniProt O14733)
The “probe-labelled cysteine peptide fold change” value of the first is higher: -0.063 for the first, -0.201 for the second.

Compared with “MAEA_Q7L5Y9_195_SCLEFSLR (UniProt Q7L5Y9)”, “MATR3_P43243_230_CRDDSFFGETSHNYHK (UniProt P43243)” is lower in “probe-labelled cysteine peptide fold change” value: -0.0173 for the first, -0.0509 for the second.

Compared with “MACF1_Q9UPN3_892_NDECVLEDNSQR (UniProt Q9UPN3)”, “MAP10_Q9P2G4_648_IQSPCVFQQDAVVDR (UniProt Q9P2G4)” is lower in “probe-labelled cysteine peptide fold change” value: -0.11 for the first, -0.174 for the second.

Compared with “MACF1_Q9UPN3_4206_FEQLCLQQQEK (UniProt Q9UPN3)”, “LUC7L_Q9NQ29_43+44_SHLLDCCPHDILAGTR (UniProt Q9NQ29)” is lower in “probe-labelled cysteine peptide fold change” value: -0.00967 for the first, -0.133 for the second.

Compared with “LUC7L3_O95232_40+43_YYLCGFCPAELFTNTR (UniProt O95232)”, “MAPRE2_Q15555_279_EIELLCQEHGQENDDLVQR (UniProt Q15555)” is higher in “probe-labelled cysteine peptide fold change” value: -0.332 for the first, -0.23 for the second.

First: LYST_Q99698_20_LCNAVVQR (UniProt Q99698)
Second: M6PR_P20645_32_TCDLVGEK (UniProt P20645)
The “probe-labelled cysteine peptide fold change” value of the first is higher: 0.0718 for the first, -0.176 for the second.

Going from “MAEA_Q7L5Y9_333_LAQPLPMAHCANSR (UniProt Q7L5Y9)” to “MAPK8_P45983_163_SDCTLK (UniProt P45983)”, the “probe-labelled cysteine peptide fold change” value rises from -0.0508 to 0.102.

Going from “LTA4H_P09960_26_CSVDFTR (UniProt P09960)” to “LYPLA1_O75608_53_YICPHAPVRPVTLNMNVAMPSWFDIIGLSPDSQEDESGIK (UniProt O75608)”, the “probe-labelled cysteine peptide fold change” value falls from -0.00265 to -0.0817.
